The results in this text go back to paper PMC3694053.

Protein sequences, listed by entry. Tags and fused reporters are not part of them.
UniProt Q15208: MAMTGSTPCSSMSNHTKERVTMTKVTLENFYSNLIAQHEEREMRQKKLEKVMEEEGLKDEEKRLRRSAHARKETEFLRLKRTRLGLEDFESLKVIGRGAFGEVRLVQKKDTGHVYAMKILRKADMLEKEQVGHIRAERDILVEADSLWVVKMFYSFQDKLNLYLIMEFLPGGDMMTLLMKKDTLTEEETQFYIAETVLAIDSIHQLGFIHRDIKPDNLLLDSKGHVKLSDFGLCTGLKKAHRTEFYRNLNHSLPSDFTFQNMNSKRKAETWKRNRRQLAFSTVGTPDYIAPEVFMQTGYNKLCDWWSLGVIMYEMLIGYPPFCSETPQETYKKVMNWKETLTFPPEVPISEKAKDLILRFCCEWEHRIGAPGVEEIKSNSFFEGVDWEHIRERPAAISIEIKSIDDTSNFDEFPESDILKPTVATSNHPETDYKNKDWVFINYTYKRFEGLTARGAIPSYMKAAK

Test [1] deals with T1, MYC-SnoN (UniProt P12757).
T1 sequence: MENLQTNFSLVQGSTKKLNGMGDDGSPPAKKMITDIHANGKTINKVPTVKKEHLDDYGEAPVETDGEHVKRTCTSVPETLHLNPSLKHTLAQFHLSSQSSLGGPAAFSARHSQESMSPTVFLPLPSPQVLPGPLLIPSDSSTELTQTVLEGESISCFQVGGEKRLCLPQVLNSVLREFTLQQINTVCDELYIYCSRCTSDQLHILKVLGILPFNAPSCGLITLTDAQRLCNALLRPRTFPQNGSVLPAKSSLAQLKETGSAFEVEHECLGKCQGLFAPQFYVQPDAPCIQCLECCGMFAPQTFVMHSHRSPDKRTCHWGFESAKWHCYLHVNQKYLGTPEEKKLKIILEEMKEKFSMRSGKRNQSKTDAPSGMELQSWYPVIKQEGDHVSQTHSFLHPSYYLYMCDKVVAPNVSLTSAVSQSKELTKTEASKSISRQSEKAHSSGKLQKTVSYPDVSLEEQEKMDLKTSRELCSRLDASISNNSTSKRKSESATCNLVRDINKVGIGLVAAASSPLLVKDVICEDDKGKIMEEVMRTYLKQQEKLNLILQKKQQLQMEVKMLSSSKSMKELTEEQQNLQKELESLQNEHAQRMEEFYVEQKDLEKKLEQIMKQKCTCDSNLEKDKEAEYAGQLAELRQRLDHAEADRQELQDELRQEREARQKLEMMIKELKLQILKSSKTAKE
Put plainly: co-IP; 293T cells expressing Rluc-NDR1 (wild type or deletion mutants) alone or with MYC-SnoN; immunoprecipitation with the MYC or SnoN antibody, Renilla luciferase activity of the immunoprecipitate normalised to expression.

The target of test [2] is HA-NDR1 (UniProt Q15208). The test is described as follows: co-IP; 293T cells expressing Rluc-SnoN (wild type or deletion mutants) alone or with HA-NDR1; immunoprecipitation with the HA antibody, Renilla luciferase activity of the immunoprecipitate normalised to Rluc-SnoN and NDR1 expression.

These are yes or no findings as the source states them, for the method shown. In cells and extracts the contact can be indirect. A result given as binding can be weak or reduced; the word gives no strength. For part of these data: Where a sequence is shown, tags or fusion partners need not be part of it.

“Rluc-NDR1 with deletion of the C-terminal regulatory region (domain or fragment)”: the binding result in test [1] is reported as “binds”. With “Rluc-SnoN with deletion of amino acid residues 1–366 (from UniProt P12757-1) (domain or fragment)”, in test [2], the binding entry is reported as “binds”. As to “Rluc-SnoN with deletion of amino acid residues 366–684 (from UniProt P12757-1) (domain or fragment)”, the binding result in test [2] was “binds”.
